Reference: patent publication US20170128554A1
Results are given in words; binding and its absence hold for the method and conditions named. Binding seen in cells or lysates may run through a third protein. Some results given as binding are weak or reduced against the parent protein; the word gives no strength.

T1: Fetuin (denatured; sialylated complex N-linked glycans) (UniProt P12763)
T1 sequence (sialylated complex N-linked glycans, looked up): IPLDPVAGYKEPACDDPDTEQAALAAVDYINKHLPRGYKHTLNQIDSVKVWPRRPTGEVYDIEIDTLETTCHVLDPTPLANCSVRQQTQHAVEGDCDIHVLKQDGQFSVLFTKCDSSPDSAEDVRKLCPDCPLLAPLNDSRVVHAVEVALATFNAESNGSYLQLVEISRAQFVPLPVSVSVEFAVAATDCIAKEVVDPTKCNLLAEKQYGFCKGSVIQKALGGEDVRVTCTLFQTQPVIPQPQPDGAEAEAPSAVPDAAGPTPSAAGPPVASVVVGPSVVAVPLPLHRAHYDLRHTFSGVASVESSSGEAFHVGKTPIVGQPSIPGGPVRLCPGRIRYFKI


Tests used:
[1] = molecular target: T1, Fetuin (denatured; sialylated complex N-linked glycans); assay: pull-down of Fbs from cell lysate by denatured fetuin on Affigel-15 beads in low salt, SDS-PAGE, ImageJ fold change against wt
[2] = molecular target: T1, Fetuin (denatured; sialylated complex N-linked glycans); assay: pull-down of Fbs from cell lysate by Affigel-fetuin beads in low salt (50 mM ammonium acetate pH 7.5), SDS-PAGE, fold change against wt; lysate panel as loading control
[3] = molecular target: T1, Fetuin (denatured; sialylated complex N-linked glycans); assay: fetuin pull-down from cell lysates, low salt buffer, SDS-PAGE
[4] = molecular target: T1, Fetuin (denatured; sialylated complex N-linked glycans); assay: fetuin pull-down, low salt buffer, SDS-PAGE

| Binder | binding [1] | binding [2] | binding [3] | binding [4] |
| --- | --- | --- | --- | --- |
| Fbs mutant PPR (protein, not shown: large carriers) FYFLSKRRRNLLRNPCGEEDLEGWCDVEHGGDGWRVEELPGPPRVEFTHDESVKKYFASSFEWCRKAQVIDLQAEGYWEELLDTTQPAIVVKDWYSGRSDAGCLYELTVKLLSEHENVLAEFSSGQVAVPQDSDGGGWMEISHTFTDYGPGVRFVRFEHGGQDSVYWKGWFGARVTNSSVWVEP | binds | binds |  | binds |
| Fbs mutant PPG (protein, not shown: large carriers) FYFLSKRRRNLLRNPCGEEDLEGWCDVEHGGDGWRVEELPGPPGVEFTHDESVKKYFASSFEWCRKAQVIDLQAEGYWEELLDTTQPAIVVKDWYSGRSDAGCLYELTVKLLSEHENVLAEFSSGQVAVPQDSDGGGWMEISHTFTDYGPGVRFVRFEHGGQDSVYWKGWFGARVTNSSVWVEP | binds |  |  | binds |
| Fbs mutant PPS (protein, not shown: large carriers) FYFLSKRRRNLLRNPCGEEDLEGWCDVEHGGDGWRVEELPGPPSVEFTHDESVKKYFASSFEWCRKAQVIDLQAEGYWEELLDTTQPAIVVKDWYSGRSDAGCLYELTVKLLSEHENVLAEFSSGQVAVPQDSDGGGWMEISHTFTDYGPGVRFVRFEHGGQDSVYWKGWFGARVTNSSVWVEP | binds |  |  | binds |

Now from value to binder:

| binding [1] | binding [2] | binding [3] | binding [4] | Binder |
| --- | --- | --- | --- | --- |
| binds | binds | binds |  | wtFbs as used in the fetuin pull-down from cell lysates (Example 15) (protein, not shown: large carriers) FYFLSKRRRNLLRNPCGEEDLEGWCDVEHGGDGWRVEELPGDSGVEFTHDESVKKYFASSFEWCRKAQVIDLQAEGYWEELLDTTQPAIVVKDWYSGRSDAGCLYELTVKLLSEHENVLAEFSSGQVAVPQDSDGGGWMEISHTFTDYGPGVRFVRFEHGGQDSVYWKGWFGARVTNSSVWVEP |
|  | binds |  | binds | Fbs mutant S155G+YR (GYR) as used in the fetuin pull-down from cell lysates (Example 15) (protein, not shown: large carriers) FYFLSKRRRNLLRNPCGEEDLEGWCDVEHGGDGWRVEELPGDGGVEFTHDESVKKYFASSYRWCRKAQVIDLQAEGYWEELLDTTQPAIVVKDWYSGRSDAGCLYELTVKLLSEHENVLAEFSSGQVAVPQDSDGGGWMEISHTFTDYGPGVRFVRFEHGGQDSVYWKGWFGARVTNSSVWVEP |
| binds | binds |  | binds | Fbs mutant YR (protein, not shown: large carriers) FYFLSKRRRNLLRNPCGEEDLEGWCDVEHGGDGWRVEELPGDSGVEFTHDESVKKYFASSYRWCRKAQVIDLQAEGYWEELLDTTQPAIVVKDWYSGRSDAGCLYELTVKLLSEHENVLAEFSSGQVAVPQDSDGGGWMEISHTFTDYGPGVRFVRFEHGGQDSVYWKGWFGARVTNSSVWVEP |
